This passage reports AC50 results from PubChem BioAssay AID493014 (National Center for Advancing Translational Sciences (NCATS), 2011).

The assay is described as follows: qHTS Assay to Find Inhibitors of Chronic Active B-Cell Receptor Signaling. The settings on record: ABC-DLBCL IkBa-CBG/CBR reporter, luminescence ratio (green luciferase fused to IkBa over red control in TMD8 lymphoma cells), 4 h. In short, it runs like this:
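Compounds up to 46 uM were incubated four hours with TMD8 cells whose green CBG68 luciferase is fused to IkappaBalpha; red CBR luminescence normalised the signal, and concentration-effect curves were fitted to fusion, red and ratio data.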

Setting [1] is: measured here: CBR red luminescence, cell number.
The mark [2] stands for this setting: measured here: IkBa-CBG green luminescence.

The list shows a part of the results. The main result of the screen is listed elsewhere. These columns were measured beside it and carry no call. The list favours compounds with an active or inconclusive main result. The note in brackets gives the kind of curve behind each potency; many fits are weak.

Consider `S=c1[nH]nc(Nc2ccc(Cl)cc2)s1`, for which, under setting [1], the AC50 was 1.78 µM [rising, single point].

On to `CCOC(=O)c1[nH]c(C)c(CCC(=O)OC)c1C`, for which the concentration at half-maximal activity (AC50) is, setting by setting: under setting [1], 23.1 µM [rising, partial curve, poor fit]; under setting [2], 16.4 µM [falling, single point].

As for `Cc1ccc(S(=O)(=O)N2CCCC2)cc1C(=O)NCC(C)(C)N1CCOCC1`, the AC50 under setting [1] is 25.9 µM [falling, single point].

Take `O=C(O)C1CCCN1S(=O)(=O)c1ccc(Br)s1` (stereo not drawn) (tested in a mixture with another compound): the AC50 under setting [1] was 0.092 µM [falling, full curve, poor fit].

Consider `COc1ccc2nc(Cl)c(C3CC(c4ccco4)=NN3C(=O)CCC(=O)O)cc2c1` (stereo not drawn), for which the AC50 under setting [1] is 6.51 µM [rising, partial curve, poor fit].

As to `CC(C)(C)C1=Nn2c(nnc2-c2n[nH]c3c2CCC3)SC1`, under setting [1], the AC50 is 0.411 µM [falling, full curve, poor fit].

`COc1ccc(NC(=O)c2ccccc2SC)cc1`: the AC50 under setting [1] was 22.4 µM [falling, single point].

Consider `O=C1CC(SCc2nc3ccccc3[nH]2)C(=O)N1c1cccc(F)c1` (stereo not drawn), for which the half-maximal activity concentration (AC50) under setting [1] was 13 µM [falling, partial curve].

With `Cc1ccc(NC(=O)Cc2ccc(Cl)c(Cl)c2)cc1S(=O)(=O)N(C)C`, the AC50 under setting [1] is 29.1 µM [falling, single point] and the half-maximal activity concentration (AC50) under setting [2] was 29.1 µM [rising, single point].

For `COc1ccc2c(C(=O)CN3CCC(C)CC3)c[nH]c2c1`, the half-maximal activity concentration (AC50) under setting [1] is 29.1 µM [rising, single point].

Regarding `COc1cccc(-n2nc(-c3ccnn3-c3ccc(F)cc3)c(=O)n(C)c2=O)c1`, the AC50 under setting [1] is 0.651 µM [falling, partial curve, poor fit].

With `O=C(/C=C/Nc1ccc(Oc2ccccc2)cc1)c1ccco1`, under setting [1], the AC50 was 3.16 µM [rising, partial curve, poor fit].

In the case of `O=C(O)c1nc(-c2ccccc2)n(-c2ccc(Cl)cc2)n1`, under setting [1], the AC50 is 5.62 µM [falling, single point].

Turning to `CCN(Cc1cc(=O)n2ccsc2n1)Cc1nc2ccccc2c(=O)[nH]1`, the AC50 under setting [1] is 35.5 µM [rising, single point].

Turning to `CC(C)S(=O)(=O)C1=NSC2=NC(=O)/C(=C\c3ccc(-c4cccc(C(=O)O)c4)o3)C(=N)N21`, the AC50 under setting [1] was 7.94 µM [falling, partial curve, poor fit].

Take `Cc1ccccc1N1CC(c2nc3ccccc3[nH]2)CC1=O` (stereo not drawn): the AC50 under setting [1] is 2.31 µM [rising, partial curve, poor fit].

Regarding `COC(=O)c1ccc(-c2ccc(/C=N/NC(=O)CC3(C)OCCCO3)o2)cc1`, the half-maximal activity concentration (AC50) under setting [1] was 35.5 µM [falling, single point].

For `Cc1ccc(NC(=O)C2C3C=CC4(CN(Cc5cccnc5)C(=O)C24)O3)cc1F` (stereo not drawn), under setting [1], the concentration at half-maximal activity (AC50) is 16.4 µM [rising, partial curve, poor fit].

With `COc1cccc(C(=O)NCC(=O)N/N=C/c2c(C)[nH]c3ccccc23)c1`, the AC50 under setting [1] is 5.01 µM [falling, partial curve, poor fit].

As for `Cc1ccc(C(=O)CSc2nnc(-c3ccc4[nH]c(C)c(C)c4c3)o2)cc1C`, the AC50 under setting [1] is 1.64 µM [falling, partial curve, poor fit].

On to `Cc1noc(C)c1COC(=O)c1cccc(S(=O)(=O)N2CCCCCC2)c1`, for which the AC50 under setting [1] was 0.631 µM [falling, partial curve, poor fit].

`CN(c1ccccc1)S(=O)(=O)c1cc(Cl)ccc1Cl`: under setting [1], the concentration at half-maximal activity (AC50) is 35.5 µM [rising, single point].

For `O=C(Cc1ccccc1F)Nc1cc(S(=O)(=O)N2CCOCC2)ccc1N1CCCC1`, under setting [1], the concentration at half-maximal activity (AC50) was 1.84 µM [rising, full curve, poor fit].

Consider `O=C(CCCc1nc(-c2ccccc2Cl)no1)NCc1cccnc1`, for which the AC50 under setting [1] was 12.6 µM [rising, partial curve, poor fit].

`CC(=O)NC(c1ccco1)c1cc(Br)c2cccnc2c1O` (stereo not drawn): the AC50 under setting [1] is 20.6 µM [falling, single point].

Turning to `CCC(=O)Nc1cccc2c1C(=O)N(C)C2=O`, under setting [1], the half-maximal activity concentration (AC50) was 9.2 µM [falling, partial curve, poor fit].

As to `O=C(NC(=S)N1CCN(c2nc(-c3ccccc3)cs2)CC1)c1cccnc1`, the AC50 runs as follows: under setting [1], 29.1 µM [rising, single point]; under setting [2], 16.4 µM [falling, single point].

With `CCCCC(=O)c1c(O)c2ccccc2oc1=O`, the AC50 under setting [1] was 3.55 µM [falling, partial curve].

For `CCN(CC)S(=O)(=O)c1cccc(NC(=O)CCNC(=O)NC23CC4CC(CC(C4)C2)C3)c1`, the AC50 under setting [1] is 0.092 µM [rising, full curve, poor fit].

Turning to `O=C(Nc1ccc2c(c1)oc1ccccc12)c1ccncc1`, the concentration at half-maximal activity (AC50) under setting [1] is 14.1 µM [falling, single point].

In the case of `CCOC(=O)C1CCN(c2ncnc3c2c(-c2ccccc2)cn3-c2ccc(C)cc2)CC1`, the AC50 under setting [1] is 35.5 µM [rising, single point].

On to `CCOC(=O)c1ccc(NC(=O)CSc2nccn2C)cc1`, for which, under setting [1], the concentration at half-maximal activity (AC50) was 16.4 µM [falling, single point].

In the case of `O=C(Nc1ccc(Cl)c(Cl)c1)c1ccc2c(c1)OCO2`, the concentration at half-maximal activity (AC50) under setting [1] is 28.2 µM [falling, single point].

Consider `COCCNC(=O)c1cc2c(=O)[nH]c3ccccc3c2s1`, for which, under setting [1], the AC50 is 28.2 µM [falling, single point].

For the compound `Cc1ccc(NC(=O)COC(=O)Cc2csc(-c3ccc(Cl)cc3)n2)cc1C`, under setting [1], the concentration at half-maximal activity (AC50) was 4.11 µM [rising, full curve].

`O=C(/C=C/c1ccccc1Cl)OCC(=O)N1CCCC1`: under setting [1], the AC50 was 29.1 µM [falling, single point].

For `CCOC(=O)CSc1nnc(NC(=O)c2cccc([N+](=O)[O-])c2)s1`, the half-maximal activity concentration (AC50) under setting [1] is 0.13 µM [falling, full curve] and the concentration at half-maximal activity (AC50) under setting [2] is 32.6 µM [rising, partial curve, poor fit].

Take `CC(C)CC(=O)NC(c1ccccc1Cl)c1c(O)ccc2ccccc12` (stereo not drawn): under setting [1], the AC50 was 11.6 µM [falling, partial curve].

For `Cc1ccc(N2CC(C(=O)OCc3ccccc3F)CC2=O)cc1` (stereo not drawn), under setting [1], the AC50 is 1.3 µM [rising, full curve, poor fit].
